# From the supplement of paper PMC10338343
# ± gives the standard deviation. This is one part of the list. Many entries were measured with a wide error.
# Tested on: EfPiwi piRISC loaded with L1MC piRNA (26 nt)
# Test: pre-steady-state target cleavage rate (min^-1); guide: L1MC piRNA 5'p-UAACUAAAUACUAUGCAAGCUGUAGG; MIWI and MILI are mouse PIWI proteins and EfPiwi is from a freshwater sponge; tags in brackets are library labels; higher = faster piRNA-guided slicing of the target
# Conditions: auxiliary factor: 500 nM Ephydatia muelleri Gtsf1
# Description: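 Cleave-'n-Seq: a library of target RNAs (target site in constant flanks) at […] was incubated with 1 nM active freshwater sponge Ephydatia fluviatilis Piwi piRISC (synthetic 5'-monophosphorylated piRNA guide) with or without 500 nM EmGtsf1 at 33 °C for 1 min to 16 h. Uncleaved targets were sequenced and the pooled three trials fitted to a burst-and-steady-state model to give the pre-steady-state cleavage rate (min^-1). Sequence is the target site only. Fits with R² ≤ 0 are excluded.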
row,Sequence,pre-steady-state target cleavage rate
1,UCCUGGAACAGCUAGCAUAGUAUAUAGUUA,0.00219 ± 0.0031
2,UCCUGGAUGUCCUUGCAUAGUAUAUAGAUA,0.00136 ± 0.0049
3,UCCUGGAUGAGCUUGCUAUCAUAAAUCAAA [g15:g21:cont:t1A],0.000172 ± 0.018
4,UCCUGGAACAGCUUGCAUUCAUAAAUCAAA [g13:g23:cont:t1A],0.000469 ± 0.0066
5,UCCUGGAACAGGUUGCAUAGUAUUUAGUUA,0.0388 ± 0.0088
6,UCCUGGAUGAGCUUGCAUAGUACUUUAGUUA,0.00806 ± 0.003
7,UCCUGGAACAGCUUGCAUAGUAUUCUAGUUA,0.00277 ± 0.0018
8,UCCUGGAUGUCGAUGCCUAGUAUUUAGUUA,0.000429 ± 0.0068
9,UCCUGGAACAGCUUGCAUAGAUUUUAGUUA,0.000858 ± 0.0058
10,UCCUGGUACUGCUUGCAUAGUAUUUACAAA,0.00278 ± 0.0027
11,UCCUGCUACAGGUUGCAUUGUAUUUAGUUA,0.00597 ± 0.0023
12,UCCUGGAUGUGCUUGCAUAGUAUAAUGUAA,0.000999 ± 0.0045
13,UCCUGCUACAGCUUGCAUAGUAAUUAGAUA,0.00345 ± 0.0018
14,UCCUCCUACAGGUUGCAUAGUAUUUACUUA,0.00113 ± 0.0018
15,UCCUGGAUGUGGUUGCAAAGUAUUUAGUUA,0.0018 ± 0.0051
16,UCCUGGAUCAGCUUGCAUAGUUUUUUCAAA,0.00141 ± 0.0037
17,UCCUCGUACAGCUUGCAUACUAUUUAGUUA,0.0224 ± 0.0069
18,UCCUGGAUGUCGAUGCAUAGAUUUUAGUUA,0.000206 ± 0.019
19,UCCUCCUACAGCUUGCAUAGUAAUUACAAA,0.00353 ± 0.0025
20,UCCUCCUACAGCAAGCAUAGUAUUUAGUAA,0.00371 ± 0.0026
21,UCCUGGAUGUCGAAGCAUAGAAAUUAGUUA,0.000759 ± 0.0076
22,UCCUGCUACAGCAUGCAAAGUAUUUAGUUA,0.00845 ± 0.0025

# Same assay, conditions: auxiliary factor: none (no Gtsf1)
row,Sequence,pre-steady-state target cleavage rate
1,UCCUGGAUGUCCUUGCAUAGUAUAUAGAUA,0.000115 ± 0.073
2,UCCUGGAACAGCUUGCAUUCAUAAAUCAAA [g13:g23:cont:t1A],0.000254 ± 0.028
3,UCCUGGAACAGGUUGCAUAGUAUUUAGUUA,0.000651 ± 0.012
4,UCCUGGAUGAGCUUGCAUAGUACUUUAGUUA,0.00423 ± 0.0036
5,UCCUGGAACAGCUUGCAUAGUAUUCUAGUUA,0.000499 ± 0.017
6,UCCUGGAUGUCGAUGCCUAGUAUUUAGUUA,0.000148 ± 0.041
7,UCCUGGAACAGCUUGCAUAGAUUUUAGUUA,0.000599 ± 0.013
8,UCCUGGUACUGCUUGCAUAGUAUUUACAAA,0.000196 ± 0.049
9,UCCUGCUACAGGUUGCAUUGUAUUUAGUUA,0.000507 ± 0.016
10,UCCUCCUACAGGUUGCAUAGUAUUUACUUA,0.000178 ± 0.018
11,UCCUGGAUCAGCUUGCAUAGUUUUUUCAAA,0.000463 ± 0.014
12,UCCUCGUACAGCUUGCAUACUAUUUAGUUA,0.00118 ± 0.0074
13,UCCUGGAUGUCGAUGCAUAGAUUUUAGUUA,0.00013 ± 0.05
14,UCCUGGAUGUCGAACGUAUGUACUUAGUUA,0.000143 ± 0.028
15,UCCUCCUACAGCUUGCAUAGUAAUUACAAA,0.000553 ± 0.011
16,UCCUGGAUGUCGAAGCAUAGAAAUUAGUUA,0.000163 ± 0.031
17,UCCUGCUACAGCAUGCAAAGUAUUUAGUUA,0.000154 ± 0.019
18,UCCUGGAACAAGCUUGCAUAGUAUUUAGUUA,0.000651 ± 0.014
